Assay results taken from PubChem BioAssay AID1347076 (National Center for Advancing Translational Sciences (NCATS), 2019).
The whole screen tested about 400,000 compounds, of which about 13,000 (3.2%) were called active. Inconclusive results, whose numbers are uncertain, are shown with a selection of clear calls. The call rests on the fitted dose curve; in most records, active means well fitted cell-killing curve with a large enough effect; inconclusive means small, poorly fitted or top-dose-only effect, or effect the other way; inactive means flat fitted curve, though single readings scatter. A potency beside an inconclusive call is a rough fit, not a confirmed value.

Assay: qHTS assay for MDR1-selective chemotherapeutics: Primary screen using the drug-selected MDR subline cells KB-V1; further: nearly all actives have a fitted effect of over 60% in size
Settings: KB-V1 MDR cells viability, CellTiter-Glo, 72 h; activity change, negative = cytotoxicity: at 46.1 µM (top of the series)
Method in brief: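 qHTS viability screen in drug-selected KB-V1 MDR cells: 72 h compound treatment at 37 degrees C, ATP luminescence end point.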
On the % scale 0 is the no-effect control and ±100 the full control effect; potency means the concentration at half of the fitted maximal effect.

| SMILES | Potency | activity change, negative = cytotoxicity |
| --- | --- | --- |
| COc1ccc(Br)cc1CN(C)CC(=O)Nc1ccccc1Cl | inconclusive: 20.6 µM [cytotoxic, single point] |  |
| CC(C)(C)OC(=O)N[C@H](C(=O)OC(C)(C)C)c1ccc2c(c1)OCO2 | inactive |  |
| CCOc1ccc2nc(NC(=O)Cn3[nH]c(=O)c4ccccc4c3=O)sc2c1 | inactive |  |
| Cc1ccc2c(c1)nnn2C1CCN(S(=O)(=O)c2ccc(C(=O)N3C(C)CCCC3C)cc2)CC1 (stereo unspecified) | inconclusive: 29.1 µM [cytotoxic, single point] |  |
| CCC(=O)Nc1cccc(-c2nc3cc(C)ccc3o2)c1 | inconclusive: 16.4 µM [cytotoxic, single point] |  |
| Cc1cccc([C@@H]2[C@@H]3C(=O)N(Cc4ccccc4)C(=O)[C@@H]3[C@]3(Cc4ccccc4)C(=O)N(c4ccc(C(F)(F)F)cc4)C(=O)N23)c1 | inactive |  |
| COc1ccc(NC(=O)CCS(=O)(=O)c2ccccc2Cl)cc1S(=O)(=O)Nc1ccc(Cl)cc1 | inconclusive: 20.6 µM [cytotoxic, single point] |  |
| Cc1c(NC(=O)COC(=O)C2=COCCO2)cccc1[N+](=O)[O-] | inactive |  |
| O=C1CCCN1c1ccc(S(=O)(=O)Nc2ccc3c(c2)OCCO3)cc1 | active: 18.4 µM |  |
| O=c1cc(OCc2ccccc2)cc[nH]1 | inconclusive: 18.4 µM [rising, partial curve, poor fit] |  |
| Cc1ccc(S(=O)(=O)N(CC(=O)NCCC2=CCCCC2)Cc2ccccc2)cc1 | active: 18.4 µM |  |
| O=C(Cc1csc(Nc2nc(=S)[nH]c3ccccc23)n1)NCCCN1CCN(c2ccccc2F)CC1 | active: 14.6 µM |  |
| O=C(c1ccc2c(=O)n(Cc3ccccc3Cl)c(=S)[nH]c2c1)N1CCCC1 | inactive |  |
| O=C(NCCCO)C(=O)Nc1cc2c3c(c1)CCC(=O)N3CCC2 | inconclusive: 29.1 µM [rising, single point] |  |
| CC1CCCC(C)N1C(=O)CSc1ncccn1 (stereo unspecified) | inactive |  |
| Cc1ccc(-c2cc(C(F)F)n3ncc(C(=O)N4CCN(c5cccc(C)c5C)CC4)c3n2)cc1 | inconclusive: 20.6 µM [cytotoxic, single point] |  |
| CC1CCCCN1C(=O)CCC(=O)Nc1nnc(C2CCCCC2)s1 (stereo unspecified) | inconclusive: 20.6 µM [cytotoxic, single point] |  |
| O=C(c1ccc2c(c1)OCO2)C1CCCN(Cc2ccccc2OC(F)F)C1 (stereo unspecified) | inactive |  |
| COc1ccc(Br)cc1CN1CCN(Cc2c[nH]c3ccccc23)CC1 | inconclusive: 29.1 µM [cytotoxic, single point] |  |
| CCN(CC)S(=O)(=O)c1ccc(NC(=O)COC(=O)CCc2cc(OC)c(OC)c(OC)c2)cc1 | inconclusive: 11.6 µM [rising, partial curve] |  |
| O=C(Nc1ccccc1)c1ccc(CN2CCc3ccccc3C2)cc1 | inconclusive: 20.6 µM [cytotoxic, single point] |  |
| Oc1c(C(c2cccs2)N2CCOCC2)sc2ncnn12 (stereo unspecified) | inconclusive: 23.1 µM [rising, single point] |  |
| CC(C(=O)Nc1ccc2c(c1)OCCO2)N(C)CC(=O)Nc1ccccc1Br (stereo unspecified) | inconclusive: 0.0366 µM [cytotoxic, full curve] |  |
| CCc1nn2cc(C(=O)c3ccccc3O)cnc2c1-c1ccc(F)cc1 | inconclusive: 18.4 µM [cytotoxic, single point] |  |

| SMILES | Potency | activity change, negative = cytotoxicity |
| --- | --- | --- |
| COCCOc1cc(NC(=O)c2cccc(OC)c2)c(Cl)cc1Cl | inconclusive: 20.6 µM [cytotoxic, partial curve] |  |
| COc1ccc(-c2nn(-c3ccccc3)cc2/C=C/C(=O)OCC(=O)Nc2ccccc2C#N)cc1 | inconclusive: 14.6 µM [cytotoxic, partial curve, poor fit] |  |
| O=C(NCc1ccccc1F)Nc1nnc([C@H]2C[C@H](O)[C@@H](CO)O2)s1 | inactive |  |
| Nc1ncnc2c1nc(-c1ccccc1)n2C1OC(CO)C(O)C1O (stereo unspecified) | inactive |  |
| N/C(=N\c1nc2c(c(=O)[nH]1)CCCC2)Nc1ccc(Oc2ccccc2)cc1 | inconclusive: 18.4 µM [cytotoxic, single point] |  |
| COc1ccccc1-n1c(=O)c(C#N)c(-c2ccc([N+](=O)[O-])cc2)c2cc(C(=O)c3ccccc3O)cnc21 |  | inconclusive: 0.26% |
| CC(C)(C)c1ccc(S(=O)(=O)N2CCC(CO)(CC3CCCCO3)CC2)cc1 (stereo unspecified) | inconclusive: 16.4 µM [cytotoxic, single point] |  |
| NC(=O)CSc1nnc(C2CC2)n1Cc1ccccc1 | inconclusive: 9.2 µM [rising, partial curve, poor fit] |  |
| COc1ccc(-n2nc(C(=O)Nc3cc(C)ccn3)c3c4ccccc4n(C)c3c2=O)cc1Cl | inconclusive: 29.1 µM [rising, single point] |  |
| CC1(C)Cc2c(cnn2-c2ccc(F)cc2)C(NC(=O)CCN2CCCC2=O)C1 (stereo unspecified) | inactive |  |
| Cc1cccc2sc(N(CCN(C)C)C(=O)/C=C/c3cccs3)nc12 | active: 18.4 µM |  |
| COCCCN1CC23C=CC(O2)C(C(=O)O)C3C1=O (stereo unspecified) | inconclusive: 29.1 µM [rising, partial curve, poor fit] |  |
| CCOC(=O)CC[C@H](NC(=O)Cn1cnc2c(NCc3ccccc3)ncnc21)C(=O)OCC | inactive |  |
| O=C(N/N=C/c1ccccc1OCc1ccccc1)c1cccs1 | inconclusive: 29.1 µM [cytotoxic, single point] |  |
| CCC1CCCCN1Cc1nc2c(c(=O)n(C)c(=O)n2C)n1Cc1ccccc1 (stereo unspecified) | inconclusive: 3.26 µM [rising, full curve, poor fit] |  |
| CCCCNc1cc(C)nc(NCc2ccccc2)n1 | active: 5.8 µM |  |
| CCN(Cc1ccccc1)c1ccc(/C=N/N=C(N)N)cc1 | inconclusive: 29.1 µM [cytotoxic, single point] |  |
| CCOc1ccc(-c2cc(C(=O)NCCc3ccc(OC)c(OC)c3)[nH]n2)cc1 | inactive |  |
| Cc1cccc(NC(=S)Nc2ccc(Oc3ccccc3)cc2)n1 | inconclusive: 29.1 µM [cytotoxic, single point] |  |
| Cc1cn([C@H]2C[C@H](O)[C@@H](/C=C/C(=O)NCc3ccco3)O2)c(=O)[nH]c1=O | inactive |  |
| COc1cc(NC(=O)C(Cc2ccccc2)n2cccc2)cc(OC)c1 (stereo unspecified) | inactive |  |
| O=C(COc1ccccc1)OCc1cc(=O)n2nc(-c3cccs3)sc2n1 | inconclusive: 29.1 µM [rising, single point] |  |
| CC(C)Cn1c(N)c(C(=O)COC(=O)c2ccccc2Cl)c(=O)n(C)c1=O | inactive |  |
| COCc1cc(N2CCOCC2)nc(-c2ccccc2)n1 | inactive |  |

In a second layout: results already given
SMILES,Potency,"activity change, negative = cytotoxicity"
Cc1ccc2c(c1)nnn2C1CCN(S(=O)(=O)c2ccc(C(=O)N3C(C)CCCC3C)cc2)CC1 (stereo unspecified),"inconclusive: 29.1 µM [cytotoxic, single point]",
O=C(Nc1ccccc1)c1ccc(CN2CCc3ccccc3C2)cc1,"inconclusive: 20.6 µM [cytotoxic, single point]",
CC(C(=O)Nc1ccc2c(c1)OCCO2)N(C)CC(=O)Nc1ccccc1Br (stereo unspecified),"inconclusive: 0.0366 µM [cytotoxic, full curve]",
COc1ccc(-n2nc(C(=O)Nc3cc(C)ccn3)c3c4ccccc4n(C)c3c2=O)cc1Cl,"inconclusive: 29.1 µM [rising, single point]",
O=C(COc1ccccc1)OCc1cc(=O)n2nc(-c3cccs3)sc2n1,"inconclusive: 29.1 µM [rising, single point]",

Next results.

| SMILES | Potency | activity change, negative = cytotoxicity |
| --- | --- | --- |
| CCc1nc(N2CCCC(C)C2)c2oc3ccccc3c2n1 (stereo unspecified) | active: 5.17 µM |  |
| c1ccc2c(CSCc3nc4ccccc4[nH]3)cccc2c1 | active: 20.6 µM |  |
| Cc1cccc(C)c1NC(=O)CCCSc1nnc(-c2ccco2)o1 | inconclusive: 23.1 µM [cytotoxic, partial curve, poor fit] |  |
| COc1ccc(NS(=O)(=O)c2ccc(C)c(C(=O)N(C)CCc3ccc(OC)c(OC)c3)c2)cc1 | inconclusive: 20.6 µM [cytotoxic, single point] |  |
| CCCCC(=O)NNC(=S)NC(=O)c1ccc(C)cc1 | inactive |  |
| Cc1ccccc1NC(=O)c1ccc(N(Cc2ccccc2)S(C)(=O)=O)cc1 | inconclusive: 29.1 µM [cytotoxic, single point] |  |
| COc1ccc(CNC(=O)c2cnc3ccc(C)cn3c2=O)cc1 | inconclusive: 9.2 µM [rising, partial curve, poor fit] |  |
| CCOC(=O)N1CCN(C(=O)c2ccc3c(c2)N(Cc2ccc(C)cc2)CCS3)CC1 | active: 3.26 µM |  |
| CCc1nn(CC(=O)NC(C)CC)c(=O)c2cc3occc3n12 (stereo unspecified) | inactive |  |
| COc1cc(C2Nc3cc(C)c(C)cc3NC3=C2C(=O)CC(C)(C)C3)ccc1OC(C)=O (stereo unspecified) | inconclusive: 23.1 µM [rising, single point] |  |
| Cc1cc(C)n2nc(C(=O)N/N=C/c3c4ccccc4cc4ccccc34)nc2n1 | inconclusive: 23.1 µM [cytotoxic, single point] |  |
| Clc1ccc(C=NN2CCCCCC2)cc1 | inconclusive: 29.1 µM [rising, single point] |  |
| O=C(Nc1ccccc1F)NC1CCN(Cc2nnnn2Cc2ccc(F)cc2)CC1 | active: 14.6 µM |  |
| C=CCNc1nc2ccccc2c(=O)[nH]1 | inactive |  |
| CC(C)C[C@@H](CN1CCCC1CN1C(=S)NC[C@@H]1Cc1ccccc1)N1C[C@H](Cc2ccccc2)N(CCc2ccccc2)C1=S (stereo partly specified) | inactive |  |
| COc1ccc(NC(=O)c2cnc(SC)nc2)cc1 | inconclusive: 2.59 µM [cytotoxic, full curve] |  |
| C=CCSc1nnc(NC(=O)c2cccc(S(=O)(=O)N(C)c3ccccc3)c2)s1 | active: 16.4 µM |  |
| CN(C)c1oc(-c2ccccc2Cl)nc1P(=O)(c1ccccc1)c1ccccc1 | active: 7.31 µM |  |
| CCc1sc(NC(=O)c2cc3ccccc3oc2=O)nc1-c1cccs1 | inactive |  |
| CCOCCCn1c(=N)c(S(=O)(=O)c2ccc(Cl)cc2)cc2c(=O)n3cccc(C)c3nc21 | inconclusive: 1.84 µM [cytotoxic, full curve] |  |
| CC(C)(C)C1CCc2c(sc(NC(=O)CSc3nnc(-c4ccccc4)o3)c2C#N)C1 (stereo unspecified) | inconclusive: 29.1 µM [cytotoxic, single point] |  |
| Cc1cc(C)n2c(NC3CCCCC3)c(-c3ccc(F)cc3)nc2n1 | inconclusive: 11.6 µM [cytotoxic, partial curve] |  |
| C=CC[C@H](CC(=O)N(CCO)Cc1ccccc1)C(=O)N[C@H](COC(=O)[C@@H](CC=C)CC(=O)OC(C)(C)C)Cc1c[nH]c2ccccc12 | inactive |  |
